# Data: PubChem BioAssay AID540276 (National Center for Advancing Translational Sciences (NCATS), 2011)
# “And” between values parts separate entries of the source, which are not always exact repeats. Identical values can stand only once. About 5,400 (1.8%) of roughly 300,000 compounds were called active. Inconclusive means that the source gave no clear call. Such entries were picked first, then a sample of the others. The call rests on the fitted dose curve; tested in HEK293 cells. A potency beside an inconclusive call is a rough fit, not a confirmed value.
# Test: qHTS for inhibitors of binding or entry into cells for Marburg Virus
# Details: Marburg virus pseudotyped entry inhibition, cell reporter; activity change, negative = inhibition: at 37.8 µM (top of the series) unless noted
# On the % scale 0 is the no-effect control and ±100 the full control effect; potency means the concentration at half of the fitted maximal effect.
Structure (SMILES),Potency,"activity change, negative = inhibition"
O=C1c2ccccc2C(=O)N1CCCCN(C(=O)c1cc([N+](=O)[O-])cc([N+](=O)[O-])c1)c1ccc(Cl)cc1,"inconclusive: 7.08 µM [inhibitor, partial curve, poor fit]",–
CC=CC1=CC2=CC(=O)C(C)(OC(=O)c3c(C)cc(O)cc3O)C(=O)C2=CO1 (stereo not given),"inconclusive: 75 nM [activator, partial curve, poor fit] and inconclusive: 4.73 µM [inhibitor, single point]",–
O=C(N/N=C/c1cc(Cl)cc([N+](=O)[O-])c1O)NC12CC3CC(CC(C3)C1)C2,"inconclusive: 3.55 µM [activator, partial curve, poor fit]",–
COc1ccc(S(=O)(=O)Nc2ccc(S(=O)(=O)N3CCCCC3)cc2)cc1,"inconclusive: 2.91 µM [inhibitor, partial curve, poor fit]",–
CCOC(=O)c1c(N2C(=O)Nc3ccccc3N2O)sc2c1CCCC2,inactive,–
Oc1ccc(-c2nc(-c3ccc(F)cc3)c(-c3ccncc3)[nH]2)cc1,active: 5.01 µM,–
CCOC(=O)c1ccc(NC(=O)CN2C(=O)C(=O)N(CC(C)C)C2=O)cc1,inactive,–
CC1CCCC(C)N1CC(O)COc1ccc(Cl)cc1 (stereo not given),"inconclusive: 1.12 µM [inhibitor, full curve, poor fit]",–
CC(Sc1nnc(-c2ccccc2Br)o1)C(=O)N1CCOCC1 (stereo not given),inactive,–
COc1cccc(CNC(=O)CSCC(=O)Nc2ccc(C)cc2)c1,inactive,–
Cc1ccc(-n2cc(CN3CCNC(=O)CC3)c(-c3cccc(C)c3)n2)cc1,"inconclusive: 14.1 µM [inhibitor, single point]",–
O=C(CCS(=O)(=O)Cc1ccccc1)N1CCN(c2ccc([N+](=O)[O-])cc2)CC1,"inconclusive: 5.62 µM [activator, single point]",–
Cc1cc(O)c(C(C)C)cc1NC(=O)Nc1cc(Cl)ccc1Cl,"inconclusive: 3.16 µM [inhibitor, single point]",–
CSC1SCC2C(=O)N(C)C(C(C)C)C(=O)OCC(NC(=O)c3cnc4ccccc4n3)C(=O)NC(C)C(=O)N(C)C1C(=O)N(C)C(C(C)C)C(=O)OCC(NC(=O)c1cnc3ccccc3n1)C(=O)NC(C)C(=O)N2C (stereo not given),"inconclusive: 2 µM [inhibitor, full curve, poor fit]",–
CCCCn1nc(C(=O)N2CCN(S(=O)(=O)c3ccccc3)CC2)c2ccccc2c1=O,"inconclusive: 20 µM [inhibitor, single point]",–
CNC(=O)CN(c1ccc(C23CC4CC(CC(C4)C2)C3)cc1)S(C)(=O)=O,"inconclusive: 6.31 µM [inhibitor, full curve, poor fit]",–
N#Cc1ccccc1OCC(=O)OCC(=O)NC1CCCCC1,"inconclusive: 0.1 µM [inhibitor, full curve, poor fit]",–
N/C(=N\OC(=O)c1cccc([N+](=O)[O-])c1)c1ccccn1,"inconclusive: 23.1 µM [inhibitor, partial curve, poor fit]",–
Cc1ccc(/C=N/NC(=O)CSc2nc3ccccc3c(=O)n2-c2ccccc2C)s1,"inconclusive: 17.8 µM [inhibitor, single point]",–
CC(C)C[C@H]1COc2cc(N3CCCC3)ccc2S(=O)(=O)N1,"inconclusive: 25 µM [activator, single point]",–
O=C(N/N=C/c1cccnc1)c1cc(O)c(O)c(O)c1,active: 3.16 µM,–
CCOc1ccccc1NC(=O)c1ccc(NC(=O)c2ccco2)cc1,"inconclusive: 25.1 µM [inhibitor, single point]",–

Structure (SMILES),Potency,"activity change, negative = inhibition"
COc1cc(/C=C2/NC(=O)N(c3cccc(Cl)c3)C2=O)ccc1O,"inconclusive: 3.55 µM [inhibitor, full curve]",–
CC(NC(=O)COc1ccccc1)C(=O)NCc1ccc(S(N)(=O)=O)cc1 (stereo not given),"inconclusive: 1.78 µM [inhibitor, full curve]",–
CCn1nnnc1SCC(=O)N1CCCc2ccccc21,inactive,–
Cc1ccc(NC(=O)CCn2nnc3ccccc32)c(C)c1,"inconclusive: 3.55 µM [activator, partial curve, poor fit]",–
COc1cc(/C=N/N(C)c2ccccc2)cc(Cl)c1O,inactive,–
COC1C=COC2(C)Oc3c(C)c(O)c4c(O)c(c(CN5CCN(C)CC5)c(O)c4c3C2=O)NC(=O)C(C)=CC=CC(C)C(O)C(C)C(O)C(C)C(OC(C)=O)C1C (stereo not given),"inconclusive: 31.6 µM [activator, single point]",–
Cc1ccc(SCc2cc(=O)[nH]c(N3CCN(Cc4ccccc4)CC3)n2)cc1,inactive,–
COc1ccccc1OCCCn1cc(C=O)c2ccccc21,"inconclusive: 35.5 µM [inhibitor, single point]",–
O=c1n(CCCN2CCN(c3cccc(Cl)c3)CC2)nc2ccccn12,"inconclusive: 35.5 µM [inhibitor, single point]",–
CCN(C(=O)COC(=O)c1cc(S(=O)(=O)N2CCOCC2)c(Cl)cc1Cl)C1CCS(=O)(=O)C1 (stereo not given),"inconclusive: 10 µM [inhibitor, partial curve, poor fit]",–
O=c1[nH]nc(-c2ccc(NCCO)c([N+](=O)[O-])c2)c2ccccc12,inactive,–
Cc1ccc(S(=O)(=O)N2CCN(CC(=O)N/N=C/c3ccco3)CC2)cc1,"inconclusive: 8.91 µM [activator, partial curve]",–
O=C(CSc1ccc(Br)c2cccc(Cl)c12)Nc1ccc(S(=O)(=O)Nc2nccs2)cc1,"inconclusive: 2.51 µM [inhibitor, partial curve, poor fit]",–
Cc1sc(NC(=O)C2CSC3(C)CCC(=O)N23)nc1-c1ccc(F)cc1 (stereo not given),"inconclusive: 11.2 µM [inhibitor, partial curve]",–
COc1ccccc1OCC(=O)NNC(=O)c1cccs1,"inconclusive: 5.62 µM [activator, single point]",–
O=C(NNC(=O)C12CC3CC(CC(C3)C1)C2)c1cnccn1,inactive,–
O=Cc1cccc(OC(=O)Nc2ccccc2)c1,"inconclusive: 31.6 µM [activator, single point]",–
CCNC(=O)Nc1nc2ccccc2s1,"inconclusive: 17.8 µM [inhibitor, single point]",–
Cn1c(-c2cccc(OCc3ccccc3)c2)nc2c1c(=O)[nH]c(=O)n2Cc1ccccc1,inactive,–
COc1ccc(-c2nc(CSCC(=O)NCCc3ccc(C)cc3)c(C)o2)cc1OC,inactive,–
Cc1[nH]c(C)c2c(=O)[nH]ncc12,inactive,–
O=C(Cc1cccs1)NCCSc1c(-c2ccc(Cl)cc2)[nH]c2ccccc12,"inconclusive: 9.2 µM [inhibitor, partial curve, poor fit]",–

Structure (SMILES),Potency,"activity change, negative = inhibition"
CCOC(=O)CCCn1c(C)nc(=O)c(-c2ccccc2)c1C,"inconclusive: 35.5 µM [activator, single point]",–
O=C(/C=C/c1ccco1)Nc1ccc(S(=O)(=O)N2CCOCC2)cc1,inactive,–
COc1ccc(/C(O)=C2/C(=O)C(=O)N(Cc3cccnc3)C2c2ccccn2)cc1 (stereo not given),inactive,–
O=C(Cn1c(=O)sc2ccccc21)Nc1nc2c(s1)CCCC2,"inconclusive: 35.5 µM [inhibitor, single point]",–
Cc1cccc(NC(=S)N(C)Cc2cn(C)c3ccccc23)c1,inactive,–
O=C1C=C(N2CCN(c3ccccn3)CC2)C(=O)c2c(O)ccc(O)c21,"inconclusive: 10 µM [inhibitor, partial curve, poor fit]",–
S=C(Nc1ccc(Br)cc1)N1CCCC1,inactive,–
[O-][n+]1c2ccc3nonc3c2nn1-c1ccccc1Cl,inactive,–
COc1ccccc1N(CC(=O)NCc1ccccc1)C(=O)CCC(=O)Nc1nccs1,inactive,–
COc1ccccc1CNC(=O)C(=O)NCCC1CCCCN1S(=O)(=O)c1cccs1 (stereo not given),"inconclusive: 8.91 µM [inhibitor, partial curve, poor fit]",–
CCn1c(=N)c(C(=O)NCc2cccnc2)cc2c(=O)n3cc(C)ccc3nc21,"inconclusive: 35.5 µM [inhibitor, single point]",–
Cc1nn(-c2ccccc2)c(C)c1NC(=O)COC(=O)c1ccc(Cl)c(N)c1,"inconclusive: 22.4 µM [activator, partial curve, poor fit]",–
COc1cccc(C(=O)NCCS(=O)(=O)NCc2ccco2)c1,inactive,–
COc1ccc(-c2cc(C(=O)Nc3cc(C)ccc3O)no2)cc1OC,–,inconclusive: 4.07% [activator] [at 46.1 µM]
O=C1CC(c2cc(F)ccc2F)c2cc3c(cc2N1)CCC3 (stereo not given),"inconclusive: 5.62 µM [inhibitor, single point]",–
COC(=O)c1sccc1NC(=O)Nc1ccccc1Cl,inactive,–
O=C(COC(=O)c1cc(Cl)ccc1[N+](=O)[O-])NCc1ccc(Cl)cc1Cl,"inconclusive: 0.231 µM [inhibitor, single point]",–
Cc1ccc(CN2CCNC(=O)C2CC(=O)NC2CCCCCC2)cc1 (stereo not given),"inconclusive: 35.5 µM [inhibitor, single point]",–
Cc1cccc(C)c1OCCCCn1c(C2CC(=O)N(c3ccc(F)cc3)C2)nc2ccccc21 (stereo not given),"inconclusive: 11.2 µM [inhibitor, partial curve, poor fit]",–
CC(C)(C)C(=O)Nc1ccccc1C(=O)OCC(=O)c1ccc2c(c1)OCCO2,"inconclusive: 10 µM [inhibitor, partial curve, poor fit]",–
CC(=O)c1ccc(N2CCN(C(=O)[C@H](C)NC(=O)c3ccccc3Cl)CC2)cc1,"inconclusive: 35.5 µM [inhibitor, single point]",–
